The source of these data is patent publication US20250034135A1, “ANTI-APOPTOTIC PROTEIN BCL-2 INHIBITOR, PHARMACEUTICAL COMPOSITION AND USES THEREOF” (HANGZHOU HEALZEN THERAPEUTICS CO., LTD., priority 2021, published 2025).

Protein sequences, listed by entry. Tags and fused reporters are not part of them.
UniProt P10415, whole entry: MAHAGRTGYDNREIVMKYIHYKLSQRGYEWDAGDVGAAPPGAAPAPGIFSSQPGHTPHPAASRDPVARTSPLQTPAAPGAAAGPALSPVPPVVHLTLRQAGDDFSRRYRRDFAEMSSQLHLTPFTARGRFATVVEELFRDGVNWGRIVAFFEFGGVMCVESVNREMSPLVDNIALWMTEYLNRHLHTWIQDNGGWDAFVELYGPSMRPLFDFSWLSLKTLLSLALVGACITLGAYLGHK

As usually defined, the pIC50 is the negative decadic logarithm of the IC50, by convention in mol/L.

pIC50: −log10 of the molar value. The structures given here were assigned with low confidence; some may be wrong. A value given as a limit tells only on which side of the number the result lay.

For this test, the target named is BCL2 (Homo sapiens (Human), UniProt P10415). Put plainly: Molecular level activity test of anti-apoptotic protein BCL2 (HTRF, binding to Bim peptide). Conditions: read-out: BCL2 nM (inhibitory activity, IC50). (TR-FRET usually uses a lanthanide donor and a delayed reading to cut background.)
Consider `CC(C)c1ccccc1[C@@H]1CN(Cc2ccccn2)CCN1C1CC2(CCN(c3cc(Oc4cnc5[nH]ccc5c4)c(C(=O)NS(=O)(=O)c4ccc(NCC5(F)CCOCC5)c([N+](=O)[O-])c4)cc3F)CC2)C1`, for which the negative-log IC50 (pIC50) was > 8.00.
With `CC(C)c1ccccc1[C@@H]1CCCN1C1CC2(CCN(c3cc(Oc4cnc5[nH]ccc5c4)c(C(=O)NS(=O)(=O)c4cc([N+](=O)[O-])c(NCC5CCC(O)CC5)c5[nH]cnc45)cn3)CC2)C1` (stereo partly drawn), the negative logarithm of the IC50 (pIC50) is > 8.00.
As for `CC(C)c1ccccc1[C@@H]1CCCN1C1CC2(CCN(c3cc(Oc4cnc5[nH]ccc5c4)c(C(=O)NS(=O)(=O)c4cc([N+](=O)[O-])c(NC[C@H]5CC[C@](C)(O)CC5)c5[nH]cnc45)cn3)CC2)C1`, the figure is > 8.00.
